Results are given in words; binding and its absence hold for the method and conditions named. Some results given as binding are weak or reduced against the parent protein; the word gives no strength.
What was measured:
[1] = target: CD36 immobilized on the SPR surface (UniProt P16671); assay: SPR competition experiment: CD36 immobilized, 20 nM anti-CD36 antibody to saturation, then 200 nM TSP1; change in RU relative to buffer-only injection
[2] = target: CD36 immobilized on the SPR surface (UniProt P16671); assay: SPR competition experiment: CD36 immobilized on the surface, 20 nM 1G04 or buffer first, then a short pulse of 200 nM TSP1

Chains of the proteins cited; added tags and fusions are not shown. Residues count along the entry.
UniProt P16671, residues 30-439: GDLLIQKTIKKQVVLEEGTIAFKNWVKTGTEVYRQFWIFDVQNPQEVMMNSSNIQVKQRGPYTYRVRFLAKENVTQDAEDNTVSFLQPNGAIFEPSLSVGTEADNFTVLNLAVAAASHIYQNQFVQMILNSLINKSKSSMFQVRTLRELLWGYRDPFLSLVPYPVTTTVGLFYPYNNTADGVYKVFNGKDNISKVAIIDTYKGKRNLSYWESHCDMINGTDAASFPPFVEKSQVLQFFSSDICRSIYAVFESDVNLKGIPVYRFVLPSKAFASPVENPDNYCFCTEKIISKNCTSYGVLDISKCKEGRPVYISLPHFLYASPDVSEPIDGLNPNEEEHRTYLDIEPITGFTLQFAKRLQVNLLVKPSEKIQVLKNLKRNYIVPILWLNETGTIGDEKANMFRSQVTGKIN
UniProt P07996, residues 19-1170: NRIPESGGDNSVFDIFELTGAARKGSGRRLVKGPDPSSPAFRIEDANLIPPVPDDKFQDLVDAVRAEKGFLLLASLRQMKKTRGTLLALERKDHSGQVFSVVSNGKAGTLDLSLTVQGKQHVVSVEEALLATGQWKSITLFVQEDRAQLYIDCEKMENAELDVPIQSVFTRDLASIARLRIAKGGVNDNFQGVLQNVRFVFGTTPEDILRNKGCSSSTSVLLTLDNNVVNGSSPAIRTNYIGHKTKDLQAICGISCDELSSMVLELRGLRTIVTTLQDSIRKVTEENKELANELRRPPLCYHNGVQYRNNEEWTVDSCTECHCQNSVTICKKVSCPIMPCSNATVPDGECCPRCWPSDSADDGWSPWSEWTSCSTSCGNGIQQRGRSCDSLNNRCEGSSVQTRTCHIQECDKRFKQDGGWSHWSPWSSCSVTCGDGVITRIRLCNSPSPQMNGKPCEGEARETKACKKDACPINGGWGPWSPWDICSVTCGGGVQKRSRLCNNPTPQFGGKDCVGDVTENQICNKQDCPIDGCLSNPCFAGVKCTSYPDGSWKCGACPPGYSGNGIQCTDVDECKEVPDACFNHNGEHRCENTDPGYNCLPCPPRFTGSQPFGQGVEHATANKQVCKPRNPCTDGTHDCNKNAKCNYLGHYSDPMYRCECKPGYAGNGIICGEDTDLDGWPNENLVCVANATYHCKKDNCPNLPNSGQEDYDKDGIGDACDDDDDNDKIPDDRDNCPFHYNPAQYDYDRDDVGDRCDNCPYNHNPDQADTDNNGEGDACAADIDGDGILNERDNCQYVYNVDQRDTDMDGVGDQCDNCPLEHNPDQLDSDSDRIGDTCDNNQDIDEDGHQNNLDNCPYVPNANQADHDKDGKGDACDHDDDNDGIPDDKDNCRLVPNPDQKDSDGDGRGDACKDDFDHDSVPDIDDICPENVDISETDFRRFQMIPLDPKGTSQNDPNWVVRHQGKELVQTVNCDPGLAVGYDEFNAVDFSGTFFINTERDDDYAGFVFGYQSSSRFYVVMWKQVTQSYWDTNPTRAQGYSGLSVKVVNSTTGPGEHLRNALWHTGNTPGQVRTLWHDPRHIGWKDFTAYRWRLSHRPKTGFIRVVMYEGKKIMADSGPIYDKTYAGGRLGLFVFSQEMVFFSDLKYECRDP

In the case of “TSP1 (from UniProt P07996 19-1170) (ligand)”, the binding [1] is reported as “binds” and the binding [2] is reported as “binds”.

— patent US20250206836A1
